About 1,400 (4.5%) of roughly 31,000 sequences were called active.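 Rule for the calls: active = median seed-adjusted z-score above 1 or below -1; inactive = the rest.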 The list shows a part of the results.

The test is described as follows: Novel Modifiers of Survival Motor Neuron (SMN) Protein: Gene Identification via Genome-wide siRNA Screen.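 Note: luminescence tracks full-length SMN protein made from the SMN2 reporter.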 As to conditions: HEK293T SMN2-luciferase reporter, siRNA knockdown, 72 h; actives lie on both sides. The method, boiled down:
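Each of three siRNAs per gene is reverse-transfected (1 pmol) into reporter HEK293T cells whose luciferase output tracks SMN protein level. After 72 h culture, ONE-Glo luminescence is control-normalized, log10-transformed and MAD-standardized; Common Seed Analysis deprioritizes seed-driven hits.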
As for GAGUCUAUCAUGAAUGUCATT against HSD3B1, the median seed-adjusted z-score is inactive: -0.145.

Turning to GUCUAUGACAGUUACCUUATT against TMPRSS13, the median seed-adjusted z-score was inactive: 0.0584. The same measure for GCCCAACACUCGCCUUGAATT against DPP3: inactive: -0.261; for CCAUUGAAUGGAAUCUGAATT against LCORL: inactive: -0.0458; for CAGUAAAUCUGAAAAGUAATT against RBMXL2: inactive: -0.387. With UCCUCGUAAGUGACCGUUATT against CHST14, the median seed-adjusted z-score is inactive: 0.228. As for UAACUUCUAUGACAACAAATT against CTSA, the figure is inactive: 0.0897. Take GUAUGUUCAGGUUCAGUCATT against SMOC1: the median seed-adjusted z-score is inactive: 0.0453.

GAGUAUAUCAGAAUCGGGATT against THRAP3: the median seed-adjusted z-score was inactive: -0.852. In the case of GCCGAGUUGUGAUUAUCGATT against ACTR10, the median seed-adjusted z-score was inactive: 0.362. For the sequence AGAAAUCUCCACUAUUUUATT against AKR1C3, the median seed-adjusted z-score is inactive: -0.00538.

On to GGUUGUAGAUGGUACUCCATT against ADAMTS1, for which the median seed-adjusted z-score was inactive: 0.173. As for CGCCGGAAGUUGUAUGGUUTT against FLT1, the figure is inactive: 0.407; as for AGCCCGAUCUGAAGAAGGATT against SOX9, inactive: 0.775. Turning to AGAGCAAUGAACAAUGGAATT against EGFL8, the median seed-adjusted z-score is inactive: 0.365. With CAACCAGGCUCCACAUAAATT against APOBEC3G, the median seed-adjusted z-score is inactive: 0.00539.

Consider GGUGGUGAAUUUGCGAGAATT against KIF27, for which the median seed-adjusted z-score was inactive: 0.412. The same measure for CACUAUCCUGAGUAAUUAUTT against GABRE: inactive: 0.211. In the case of GCCUAGAGCUAAGUACCAATT against CHUK, the median seed-adjusted z-score was inactive: -0.613. Consider GACCCAACCUGGUUCUGAATT against CRTAC1, for which the median seed-adjusted z-score was inactive: 0.113. For the sequence GAAGUUGACAUACCACCUATT against BMPR1B, the median seed-adjusted z-score is inactive: 0.5. For the sequence AAAUGUCCAAGAAUGAAUATT against AFAR3, the median seed-adjusted z-score is inactive: 0.0433.

As to CUAUCUCUAUGAUUGAUUATT against GSTO1, the median seed-adjusted z-score is inactive: 0.188. CGAUGAUUACGACGAGGACTT against KCNG4: the median seed-adjusted z-score was inactive: 0.666. As for CCCUUUUCCUGCACAACAATT against PLOD3, the median seed-adjusted z-score is inactive: -0.258.

For the sequence GCUCGAUUAACAAAAUAUATT against SLC30A5, the median seed-adjusted z-score was inactive: 0.401. GGUGGAAUGGUAUACUAAATT against NT5C3: the median seed-adjusted z-score was inactive: -0.456.

With GAAUACCAUUUAACAUGGATT against ZNF33B, the median seed-adjusted z-score was inactive: -0.279. The same measure for GAGUGGACAUUGGACUCAATT against TBC1D9B: inactive: -0.906; for GAACUGCAUCGGGAAACAATT against CYP4A22: inactive: -0.479. The same measure for GCAUACAAGAAGUCACUAUTT against KRT1: inactive: -0.362; for GGUCCUUACGAAAAUCGCATT against ATP6V1B2: inactive: 0.24. Consider GGUGUAACAGGAUUGAGAATT against USP44, for which the median seed-adjusted z-score was inactive: 0.374. For GCCCAAACUGAGUACAACUTT against PLA2G10, the median seed-adjusted z-score was active: 1.07. Consider GGAUUUUACAGUUUUUGGATT against PCCB, for which the median seed-adjusted z-score was inactive: 0.137.

For GAAAGAAGAAUAUACUGAUTT against RBBP6, the median seed-adjusted z-score is inactive: -0.212. On to CUAACACCUCGGAACCCAATT against TACR1, for which the median seed-adjusted z-score was inactive: -0.391. CAUUGAUGCUUGUAUUGAATT against CPEB2: the median seed-adjusted z-score is inactive: -0.00928. The same measure for AUAGUGAAAUAGAACAGUATT against BRF2: inactive: -0.00969; for CGAGAUAACUACUUUCGGATT against RALB: inactive: -0.534; for GGAUCAUCCAAGAUGGGAATT against NELL1: inactive: -0.466. The same measure for CGCUGAGCACGAUCCUGAATT against CENPB: inactive: 0.292; for CAAUAUCACCUCAUUAAUATT against KCTD5: inactive: -0.748; for CCCUUACAGUUGUCGGAUUTT against ZNF438: inactive: 0.165.

GAACUGAUAGGAAAACAAATT against AK3L1: the median seed-adjusted z-score is inactive: 0.0337.

GGUAUUAUCCUGCUUGGUATT against XPO7: the median seed-adjusted z-score was inactive: 0.546.

Turning to GGCCUUUAGUUAUAAAGGATT against TIMM8A, the median seed-adjusted z-score is inactive: 0.173. Turning to ACCUCGAACUCUCAAAAUUTT against NDUFV3, the median seed-adjusted z-score is inactive: -0.086. Turning to UCCCAGCGCUGAAACUUGATT against OXT, the median seed-adjusted z-score was inactive: 0.553. The same measure for GGAAAUAGAACAUAACCAATT against HPDL: inactive: 0.483; for CCGUCUUCAUGUUCGAGUATT against GRIN2C: inactive: -0.3; for CCAUGUAUCUGAGUGAUCATT against ERC2: inactive: 0.172.

Consider GAGGUAUCAUUAUCAGUUATT against CYP4F3, for which the median seed-adjusted z-score is inactive: -0.336. For CCGUAGUAUUUAUAGUUAATT against GSC, the median seed-adjusted z-score was inactive: 0.17. In the case of CCUUUACUUUCUAUAGAAATT against ZNF573, the median seed-adjusted z-score was inactive: -0.169. Turning to GGUUCUUUCUAAUAUGGAATT against IMPA1, the median seed-adjusted z-score was inactive: -0.295. In the case of GAGCUAUUUACAAACCGAATT against CES1, the median seed-adjusted z-score is inactive: -0.536. The same measure for GAUGAUAUGUCGUAUCGAATT against LMO7: inactive: 0.417. As for GAAUGAUGAUGCAUGCCUUTT against MS4A10, the figure is inactive: -0.24; as for CUGUCAAAGUUGCUCGAAATT against MSH6, inactive: -0.182; as for GACUCUGAGUAUAAAGUGATT against BARHL1, inactive: 0.397. For the sequence GCACGUGAGAGGGAUGAAATT against SNW1, the median seed-adjusted z-score was inactive: 0.148. On to ACAUGAUCUUGGACCUGGATT against CSNK2B, for which the median seed-adjusted z-score is active: -1.62. For the sequence CUGAAGAUGUUAGACAAGATT against CAMKK1, the median seed-adjusted z-score was inactive: 0.

Take CGCUCAGUGUCCAACAUUATT against CYP2F1: the median seed-adjusted z-score is inactive: 0.

On to AGACCGAUCCUGACCCUUUTT against ZNF395, for which the median seed-adjusted z-score is inactive: -0.0986.

For CUGCCGAACUUUUAAACAATT against MCHR2, the median seed-adjusted z-score is inactive: -0.658.

In the case of GGGAUUAUUUUACGGCAGATT against ABCB5, the median seed-adjusted z-score was inactive: 0.495. The same measure for CAUAGAUCACUAUCGAAAATT against RASA1: inactive: -0.398; for AGCCCUAAACUAUUCCAGATT against MRGPRD: inactive: -0.484. Regarding GGAAUGAGUACGUUACCAATT against MYH3, the median seed-adjusted z-score was inactive: -0.113. Take CGGUGAACGGGUUGGAGAATT against PAX9: the median seed-adjusted z-score was active: -1.16. Turning to CCUAUUCCCUGGAUUCACATT against CARD6, the median seed-adjusted z-score was inactive: 0. For the sequence AAGCCGACUUGAAUAUAAUTT against MYBBP1A, the median seed-adjusted z-score is inactive: 0.572. On to ACUUUGAUGAUUAUAUGAATT against FABP4, for which the median seed-adjusted z-score was inactive: 0.227.

GAAUGACCGUGUGAGGAAATT against DCLK3: the median seed-adjusted z-score is inactive: -0.0139. On to CAAUGUCCAGGGUAUCAUUTT against HAO2, for which the median seed-adjusted z-score is inactive: 0.039. For the sequence CGAGCCCACUUGUCAGAAATT against RBM10, the median seed-adjusted z-score is inactive: -0.0114.

For the sequence GAAAAGCGGUUUCAGAUCATT against HLTF, the median seed-adjusted z-score was inactive: -0.00902. As for CUGAUGAGGCGGAUACUAATT against TEP1, the figure is inactive: -0.495; as for GCUCAUAUGUUAGAUUUGATT against CARS2, inactive: 0. As for GCAAUGAUCAAUUAUCCCATT against TSC22D2, the figure is inactive: 0; as for GAGUGGUCCUAGUCAAAGATT against CHRM5, inactive: -0.553; as for GGCAGAGUGUGACAUCAUUTT against PADI3, inactive: 0.147. The same measure for GGAACUUUCCGGAAUGACATT against TNFRSF10A: inactive: 0.129; for CUACUACAGUCACCGAGUATT against LAMB3: inactive: -0.0106; for GAACCCACCUAAAUGUUGATT against KLF10: inactive: 0.616.

For the sequence GUGGUGCAAUCACUGUUUATT against ZNF497, the median seed-adjusted z-score was inactive: -0.33. As for CAACUACAGUUGCUAGCUATT against ZFR, the median seed-adjusted z-score was inactive: -0.048. As to CCUCUACUGUUGCCGUGAATT against AHCYL2, the median seed-adjusted z-score is inactive: 0.415. As for GGGUUUAUAGCAGACCUAATT against ZDHHC17, the median seed-adjusted z-score was inactive: 0.526. On to GAUCCUAGCUCGCUGCGAATT against GLI1, for which the median seed-adjusted z-score is inactive: -0.347. For the sequence GCGAUACUAUAAAAAUUGATT against NRP1, the median seed-adjusted z-score was inactive: 0.561. For GAUCGGCUACAUUACGAAATT against NFRKB, the median seed-adjusted z-score is inactive: 0.787. GGUGGAACCGUAACCCUGATT against AGER: the median seed-adjusted z-score is inactive: 0.506.

GAAACGGAGUGAAGACCGGTT against P2RX5: the median seed-adjusted z-score is inactive: 0.313. As for AGAUGUGACCUUUCCCUCUTT against KLK7, the median seed-adjusted z-score is inactive: 0. As for GGGCCGAACUGAAAUACGATT against FGD2, the figure is inactive: 0.0293; as for GCUCAGUUCUACGAAAUCATT against KCTD14, inactive: -0.166. CGACCACAAAUCCUCCAAATT against SCYL1: the median seed-adjusted z-score was inactive: 0.0409. GUCUGUUACUUUUCGAAUUTT against RAD1: the median seed-adjusted z-score is inactive: -0.71.

In the case of GCAAUGAACACCAUCCGAATT against KEAP1, the median seed-adjusted z-score was inactive: 0.207. As for AGAGAUAUUUGUAGAGCAATT against LIN7C, the figure is inactive: 0.021; as for GCUACUUCUGGAACAGUAUTT against METTL5, inactive: 0.221; as for GAGUCACGGUUGAAGGACATT against SPTAN1, inactive: -0.233. As to AACUACUUCUGGAUGGUCATT against SPHK1, the median seed-adjusted z-score is inactive: -0.249. Regarding GGAACUAACUUACCCAGCUTT against SLC25A22, the median seed-adjusted z-score is inactive: -0.444.

These data come from PubChem BioAssay AID1347426 (Functional Genomics Laboratory (NCATS/FGL), 2020).
